Test results from the supplement of paper PMC6411743.
± gives the standard deviation of the averaged measurements. The list shows a part of the results, in another mix than the full data.

By UniProt entry, the sequences of proteins in these tests, tags left out. Where a name states a change or a piece, a line headed by the entry shows the natural chain unless it says otherwise.
UniProt Q15633: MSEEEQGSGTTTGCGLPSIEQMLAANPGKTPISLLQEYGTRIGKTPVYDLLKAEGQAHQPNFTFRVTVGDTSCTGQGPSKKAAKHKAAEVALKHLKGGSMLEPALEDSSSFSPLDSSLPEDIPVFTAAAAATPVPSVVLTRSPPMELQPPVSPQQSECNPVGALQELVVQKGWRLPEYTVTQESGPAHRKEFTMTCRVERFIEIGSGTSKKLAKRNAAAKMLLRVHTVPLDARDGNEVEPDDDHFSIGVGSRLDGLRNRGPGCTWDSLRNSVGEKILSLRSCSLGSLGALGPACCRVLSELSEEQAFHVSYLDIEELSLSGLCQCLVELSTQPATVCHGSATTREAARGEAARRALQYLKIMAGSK
UniProt Q16186: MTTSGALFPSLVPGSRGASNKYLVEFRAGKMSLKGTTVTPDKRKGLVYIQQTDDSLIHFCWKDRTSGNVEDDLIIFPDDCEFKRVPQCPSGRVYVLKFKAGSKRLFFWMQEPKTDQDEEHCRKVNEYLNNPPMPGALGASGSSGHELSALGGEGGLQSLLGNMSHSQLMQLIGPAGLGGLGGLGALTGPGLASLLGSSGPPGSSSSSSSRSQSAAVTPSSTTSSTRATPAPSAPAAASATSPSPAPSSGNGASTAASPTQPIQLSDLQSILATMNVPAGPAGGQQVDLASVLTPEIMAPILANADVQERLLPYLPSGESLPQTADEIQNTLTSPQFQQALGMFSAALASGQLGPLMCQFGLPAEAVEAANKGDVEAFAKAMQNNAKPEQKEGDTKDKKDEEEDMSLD
UniProt Q15291, whole entry: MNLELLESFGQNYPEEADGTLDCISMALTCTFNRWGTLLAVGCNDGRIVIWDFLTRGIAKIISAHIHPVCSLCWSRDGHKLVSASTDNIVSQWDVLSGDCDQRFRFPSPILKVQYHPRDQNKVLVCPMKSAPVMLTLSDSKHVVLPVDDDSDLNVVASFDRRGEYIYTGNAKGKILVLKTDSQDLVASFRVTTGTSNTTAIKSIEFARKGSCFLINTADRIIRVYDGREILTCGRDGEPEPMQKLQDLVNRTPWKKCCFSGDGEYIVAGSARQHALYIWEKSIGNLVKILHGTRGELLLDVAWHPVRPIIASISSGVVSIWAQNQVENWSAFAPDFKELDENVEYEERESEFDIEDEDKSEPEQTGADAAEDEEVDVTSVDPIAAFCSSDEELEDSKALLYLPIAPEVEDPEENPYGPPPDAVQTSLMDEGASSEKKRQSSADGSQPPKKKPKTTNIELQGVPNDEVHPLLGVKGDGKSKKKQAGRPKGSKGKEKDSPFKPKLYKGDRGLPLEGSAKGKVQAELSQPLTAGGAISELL
UniProt Q16594, whole entry: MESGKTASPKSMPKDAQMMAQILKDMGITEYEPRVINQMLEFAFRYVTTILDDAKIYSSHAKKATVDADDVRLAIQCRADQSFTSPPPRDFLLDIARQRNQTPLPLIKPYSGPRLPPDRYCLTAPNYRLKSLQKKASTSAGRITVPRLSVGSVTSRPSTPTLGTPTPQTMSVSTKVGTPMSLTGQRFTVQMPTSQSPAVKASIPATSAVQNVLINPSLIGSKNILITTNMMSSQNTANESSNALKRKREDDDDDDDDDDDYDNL
UniProt Q15022: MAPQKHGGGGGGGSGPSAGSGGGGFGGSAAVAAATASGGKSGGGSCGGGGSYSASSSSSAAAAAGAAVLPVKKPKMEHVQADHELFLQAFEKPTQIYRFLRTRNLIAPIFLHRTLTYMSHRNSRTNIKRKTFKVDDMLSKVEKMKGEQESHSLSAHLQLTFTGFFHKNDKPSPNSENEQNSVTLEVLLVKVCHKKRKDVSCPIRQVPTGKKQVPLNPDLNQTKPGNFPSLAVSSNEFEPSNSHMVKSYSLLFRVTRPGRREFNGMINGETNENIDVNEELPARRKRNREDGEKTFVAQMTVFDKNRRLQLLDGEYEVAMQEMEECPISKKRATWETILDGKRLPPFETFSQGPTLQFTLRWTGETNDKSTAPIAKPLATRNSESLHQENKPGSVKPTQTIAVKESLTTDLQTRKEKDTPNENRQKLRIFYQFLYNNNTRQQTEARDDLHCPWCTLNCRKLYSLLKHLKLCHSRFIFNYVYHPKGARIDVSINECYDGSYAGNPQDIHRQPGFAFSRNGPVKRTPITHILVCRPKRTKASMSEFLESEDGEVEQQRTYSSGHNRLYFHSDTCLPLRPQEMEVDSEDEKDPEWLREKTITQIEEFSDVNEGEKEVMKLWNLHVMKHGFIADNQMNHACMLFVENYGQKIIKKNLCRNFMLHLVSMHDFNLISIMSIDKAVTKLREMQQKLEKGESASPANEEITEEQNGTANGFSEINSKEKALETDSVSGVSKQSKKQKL
UniProt Q16352: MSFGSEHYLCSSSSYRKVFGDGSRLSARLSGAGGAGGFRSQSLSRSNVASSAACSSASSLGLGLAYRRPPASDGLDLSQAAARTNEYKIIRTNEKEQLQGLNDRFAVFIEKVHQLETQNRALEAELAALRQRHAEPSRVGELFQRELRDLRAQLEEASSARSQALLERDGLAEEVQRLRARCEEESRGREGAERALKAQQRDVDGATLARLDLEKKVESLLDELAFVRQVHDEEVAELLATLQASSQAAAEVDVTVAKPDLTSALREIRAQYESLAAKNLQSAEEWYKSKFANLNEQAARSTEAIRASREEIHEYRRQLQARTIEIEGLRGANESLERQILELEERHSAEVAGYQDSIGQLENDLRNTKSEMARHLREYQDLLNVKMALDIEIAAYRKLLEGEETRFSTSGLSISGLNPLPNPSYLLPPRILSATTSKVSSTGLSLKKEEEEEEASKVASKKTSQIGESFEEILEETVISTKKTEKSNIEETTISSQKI
UniProt Q16643: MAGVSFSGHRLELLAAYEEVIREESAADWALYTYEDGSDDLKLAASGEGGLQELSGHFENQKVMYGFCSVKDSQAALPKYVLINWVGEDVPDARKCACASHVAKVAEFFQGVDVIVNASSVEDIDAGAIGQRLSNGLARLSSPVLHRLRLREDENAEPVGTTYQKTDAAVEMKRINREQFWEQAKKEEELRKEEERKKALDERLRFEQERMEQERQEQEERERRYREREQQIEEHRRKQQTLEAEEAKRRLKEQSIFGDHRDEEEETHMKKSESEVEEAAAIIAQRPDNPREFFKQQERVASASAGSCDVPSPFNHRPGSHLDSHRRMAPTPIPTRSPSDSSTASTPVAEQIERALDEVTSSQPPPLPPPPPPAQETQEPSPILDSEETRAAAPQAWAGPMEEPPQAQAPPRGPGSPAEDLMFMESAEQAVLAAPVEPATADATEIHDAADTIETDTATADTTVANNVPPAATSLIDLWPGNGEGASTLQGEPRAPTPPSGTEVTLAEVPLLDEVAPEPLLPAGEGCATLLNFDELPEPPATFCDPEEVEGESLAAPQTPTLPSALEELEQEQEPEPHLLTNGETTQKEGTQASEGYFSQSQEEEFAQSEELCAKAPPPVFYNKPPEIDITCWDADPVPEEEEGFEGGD
UniProt Q15021, whole entry: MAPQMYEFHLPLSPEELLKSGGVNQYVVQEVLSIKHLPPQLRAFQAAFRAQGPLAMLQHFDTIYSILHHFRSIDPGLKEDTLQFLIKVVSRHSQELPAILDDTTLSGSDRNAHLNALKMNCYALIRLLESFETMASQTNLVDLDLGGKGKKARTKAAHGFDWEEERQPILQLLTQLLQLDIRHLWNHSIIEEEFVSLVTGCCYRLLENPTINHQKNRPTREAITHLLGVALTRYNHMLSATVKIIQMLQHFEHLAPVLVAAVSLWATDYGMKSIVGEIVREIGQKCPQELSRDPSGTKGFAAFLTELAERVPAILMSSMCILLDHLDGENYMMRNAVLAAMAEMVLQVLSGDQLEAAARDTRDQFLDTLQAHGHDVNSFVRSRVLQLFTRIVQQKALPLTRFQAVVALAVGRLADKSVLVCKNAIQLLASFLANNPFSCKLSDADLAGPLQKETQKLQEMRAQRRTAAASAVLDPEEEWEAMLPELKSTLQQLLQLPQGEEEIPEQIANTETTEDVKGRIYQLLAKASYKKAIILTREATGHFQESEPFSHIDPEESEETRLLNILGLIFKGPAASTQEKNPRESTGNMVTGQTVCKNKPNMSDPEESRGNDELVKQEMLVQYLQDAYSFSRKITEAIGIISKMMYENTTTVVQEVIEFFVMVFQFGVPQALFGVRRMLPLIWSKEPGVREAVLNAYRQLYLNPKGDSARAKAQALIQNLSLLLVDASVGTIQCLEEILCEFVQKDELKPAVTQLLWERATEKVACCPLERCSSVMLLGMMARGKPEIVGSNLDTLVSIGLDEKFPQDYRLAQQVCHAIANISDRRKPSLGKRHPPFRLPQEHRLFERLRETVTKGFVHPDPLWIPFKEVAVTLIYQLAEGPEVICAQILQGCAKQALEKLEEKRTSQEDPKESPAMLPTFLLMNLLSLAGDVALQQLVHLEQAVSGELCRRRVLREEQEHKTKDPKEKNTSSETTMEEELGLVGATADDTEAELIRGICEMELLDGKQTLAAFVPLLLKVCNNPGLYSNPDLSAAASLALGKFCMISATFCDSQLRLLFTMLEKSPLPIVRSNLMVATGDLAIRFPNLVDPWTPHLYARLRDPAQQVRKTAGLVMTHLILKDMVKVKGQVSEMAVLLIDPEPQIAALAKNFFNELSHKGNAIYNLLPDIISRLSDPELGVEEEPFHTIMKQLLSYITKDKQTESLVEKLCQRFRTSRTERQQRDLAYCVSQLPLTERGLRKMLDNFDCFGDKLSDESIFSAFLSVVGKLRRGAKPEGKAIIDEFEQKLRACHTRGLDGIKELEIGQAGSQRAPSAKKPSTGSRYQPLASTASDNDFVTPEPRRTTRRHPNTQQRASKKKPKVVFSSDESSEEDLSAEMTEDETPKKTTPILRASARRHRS
UniProt Q15428: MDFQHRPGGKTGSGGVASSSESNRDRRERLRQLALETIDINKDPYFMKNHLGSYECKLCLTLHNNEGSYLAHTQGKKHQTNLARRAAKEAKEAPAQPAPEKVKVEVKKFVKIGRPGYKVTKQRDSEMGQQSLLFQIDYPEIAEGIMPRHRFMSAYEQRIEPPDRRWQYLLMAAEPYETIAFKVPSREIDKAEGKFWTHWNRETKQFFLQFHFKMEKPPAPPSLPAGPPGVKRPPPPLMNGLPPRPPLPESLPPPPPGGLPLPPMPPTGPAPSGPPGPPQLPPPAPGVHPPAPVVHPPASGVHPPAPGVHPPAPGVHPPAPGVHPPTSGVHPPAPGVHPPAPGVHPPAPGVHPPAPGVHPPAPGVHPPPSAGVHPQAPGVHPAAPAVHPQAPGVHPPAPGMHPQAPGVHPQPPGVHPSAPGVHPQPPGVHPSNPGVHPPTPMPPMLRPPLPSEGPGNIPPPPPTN
UniProt Q15072: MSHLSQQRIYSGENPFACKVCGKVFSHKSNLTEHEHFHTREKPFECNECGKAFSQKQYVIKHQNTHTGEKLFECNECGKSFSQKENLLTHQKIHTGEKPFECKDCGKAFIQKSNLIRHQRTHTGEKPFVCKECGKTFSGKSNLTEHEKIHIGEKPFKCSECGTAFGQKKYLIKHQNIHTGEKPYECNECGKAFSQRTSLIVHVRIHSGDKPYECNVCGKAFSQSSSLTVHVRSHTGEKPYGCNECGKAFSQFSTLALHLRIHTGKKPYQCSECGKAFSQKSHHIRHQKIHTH
UniProt Q15907: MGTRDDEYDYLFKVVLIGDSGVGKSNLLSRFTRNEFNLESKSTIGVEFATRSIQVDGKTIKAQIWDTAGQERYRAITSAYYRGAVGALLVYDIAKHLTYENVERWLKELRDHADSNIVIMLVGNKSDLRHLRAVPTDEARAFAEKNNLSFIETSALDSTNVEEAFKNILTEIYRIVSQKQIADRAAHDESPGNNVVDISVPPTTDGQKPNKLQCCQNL
UniProt Q15527: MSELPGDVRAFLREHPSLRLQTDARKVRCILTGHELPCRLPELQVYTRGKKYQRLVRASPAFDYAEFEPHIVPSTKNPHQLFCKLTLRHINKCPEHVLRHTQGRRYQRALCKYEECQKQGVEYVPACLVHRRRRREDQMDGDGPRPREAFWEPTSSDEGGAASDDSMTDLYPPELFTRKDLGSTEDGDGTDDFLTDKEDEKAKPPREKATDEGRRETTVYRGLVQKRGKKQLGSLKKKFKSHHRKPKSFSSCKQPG

Compound: Nc1ncnc2c1ncn2[C@@H]1O[C@H](COP(=O)(O)OP(=O)(O)OP(=O)(O)O)[C@@H](O)[C@H]1O [adenosine triphosphate]
Experiment: NP40-soluble protein abundance relative to vehicle (solubility fold change) (ratio); higher = more soluble protein in presence of ATP
In short: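 Each value is a fold change relative to the detergent-processed vehicle, calculated per replicate from vsn-normalised intensities. Jurkat crude lysate received eight concentrations (0.1 to 10 mM) for 10 min at room temperature and 3 min at 37 °C, then was solubilised in 0.8% NP40 with benzonase (60 min, 4 °C). The ultracentrifuged supernatant was TMT-labelled and run by LC-MS/MS in three independent experiments.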

| Target | NP40-soluble protein abundance (concentration: 1mM) | NP40-soluble protein abundance (concentration: 2mM) | NP40-soluble protein abundance (concentration: 4mM) | NP40-soluble protein abundance (concentration: 6mM) | NP40-soluble protein abundance (concentration: 8mM) | NP40-soluble protein abundance (concentration: 10mM) |
| --- | --- | --- | --- | --- | --- | --- |
| EEA1 (UniProt Q15075) | 0.947 ± 0.052 | 0.952 ± 0.018 | 0.942 ± 0.018 | 0.993 ± 0.02 | 0.921 ± 0.025 | 0.918 ± 0.013 |
| UniProt Q15633 and related entries | 0.945 ± 0.047 | 1.01 ± 0.042 | 1 ± 0.087 | 1 ± 0.066 | 0.953 ± 0.05 | 1.01 ± 0.024 |
| UniProt Q15257 and related entries | 0.948 ± 0.056 | 0.937 ± 0.054 | 0.912 ± 0.047 | 0.893 ± 0.08 | 0.873 ± 0.028 | 0.878 ± 0.049 |
| ADRM1 (UniProt Q16186) | 0.8742 ± 0.007 | 0.843 ± 0.053 | 0.81 ± 0.055 | 0.826 ± 0.13 | 0.805 ± 0.077 | 0.817 ± 0.053 |
| UniProt Q15291 and related entries | 0.982 ± 0.03 | 0.996 ± 0.011 | 0.98 ± 0.04 | 0.972 ± 0.046 | 1 ± 0.022 | 1.01 ± 0.018 |
| UniProt Q15019 and related entries | 0.98 ± 0.019 | 0.966 ± 0.023 | 0.947 ± 0.033 | 0.987 ± 0.037 | 0.961 ± 0.042 | 0.943 ± 0.032 |
| TWISTNB (UniProt Q3B726) | 1.08 ± 0.033 | 1.17 ± 0.087 | 1.24 ± 0.18 | 1.18 ± 0.28 | 1.25 ± 0.16 | 1.28 ± 0.12 |
| UniProt Q15118 and related entries | 1.32 ± 0.1 | 1.37 ± 0.18 | 1.39 ± 0.2 | 1.29 ± 0.1 | 1.41 ± 0.25 | 1.34 ± 0.18 |
| TAF9 (UniProt Q16594) | 1.08 ± 0.025 | 1.16 ± 0.031 | 1.01 ± 0.14 | 1.02 ± 0.24 | 1.09 ± 0.069 | 0.973 ± 0.093 |
| SUZ12 (UniProt Q15022) | 1.21 ± 0.074 | 1.17 ± 0.03 | 1.24 ± 0.053 | 1.23 ± 0.069 | 1.32 ± 0.076 | 1.34 ± 0.076 |
| UniProt Q16352 | 0.9978 ± 0.0016 | 1.03 ± 0.011 | 1.136 ± 0.0049 | 1.09 ± 0.096 | 0.982 ± 0.086 | 0.999 ± 0.032 |
| UniProt Q16698 and related entries | 0.982 ± 0.022 | 1.03 ± 0.028 | 1.09 ± 0.028 | 1.16 ± 0.039 | 1.12 ± 0.047 | 1.11 ± 0.062 |
| UniProt Q16643 and related entries | 0.631 ± 0.052 | 0.681 ± 0.047 | 0.728 ± 0.066 | 0.869 ± 0.12 | 0.88 ± 0.054 | 1.03 ± 0.067 |
| NCAPD2 (UniProt Q15021) | 0.9884 ± 0.0079 | 0.98 ± 0.031 | 0.979 ± 0.018 | 0.941 ± 0.025 | 0.978 ± 0.031 | 0.962 ± 0.04 |
| UniProt Q16513 and related entries | 0.983 ± 0.059 | 0.989 ± 0.054 | 1.01 ± 0.041 | 0.973 ± 0.079 | 1.01 ± 0.013 | 1.01 ± 0.071 |
| C5orf22 (UniProt Q49AR2) | 0.952 ± 0.023 | 0.989 ± 0.015 | 1.01 ± 0.038 | 0.996 ± 0.03 | 0.939 ± 0.037 | 0.953 ± 0.044 |
| SF3A2 (UniProt Q15428) | 1.05 ± 0.084 | 0.973 ± 0.25 | 1.08 ± 0.064 | 1.11 ± 0.056 | 1.07 ± 0.032 | 1.06 ± 0.11 |
| AP5B1 (UniProt Q2VPB7) | 0.918 ± 0.011 | 0.885 ± 0.081 | 0.947 ± 0.037 | 0.841 ± 0.047 | 0.926 ± 0.11 | 0.908 ± 0.052 |
| KIF22 (UniProt Q14807) | 1.23 ± 0.085 | 1.27 ± 0.048 | 1.41 ± 0.12 | 1.4 ± 0.049 | 1.41 ± 0.11 | 1.5 ± 0.12 |
| FAM50A (UniProt Q14320) | 0.931 ± 0.1 | 0.922 ± 0.071 | 0.922 ± 0.043 | 0.909 ± 0.081 | 0.941 ± 0.06 | 0.931 ± 0.043 |
| ZNF146 (UniProt Q15072) | 1.02 ± 0.05 | 0.986 ± 0.082 | 1.03 ± 0.03 | 0.976 ± 0.089 | 1.1 ± 0.13 | 1.06 ± 0.078 |
| UniProt Q16877 and related entries | 1 ± 0.095 | 0.926 ± 0.17 | 1 ± 0.045 | 0.972 ± 0.07 | 0.991 ± 0.1 | 0.967 ± 0.043 |
| DPYSL2 (UniProt Q16555) | 1.02 ± 0.02 | 0.994 ± 0.02 | 0.979 ± 0.031 | 0.979 ± 0.035 | 0.987 ± 0.035 | 0.97 ± 0.041 |
| MORC3 (UniProt Q14149) | 1.01 ± 0.027 | 1.02 ± 0.016 | 1.003 ± 0.006 | 1.007 ± 0.0076 | 0.993 ± 0.011 | 1.007 ± 0.0061 |
| RAB11B (UniProt Q15907) | 1.07 ± 0.1 | 1.04 ± 0.053 | 1.03 ± 0.18 | 1.04 ± 0.096 | 0.982 ± 0.16 | 0.938 ± 0.12 |
| RHEB (UniProt Q15382) | 0.969 ± 0.029 | 0.9528 ± 0.0065 | 0.927 ± 0.022 | 0.97 ± 0.053 | 0.931 ± 0.056 | 0.9304 ± 0.0056 |
| UniProt Q15750 and related entries | 0.995 ± 0.033 | 0.985 ± 0.024 | 0.993 ± 0.034 | 0.982 ± 0.033 | 0.929 ± 0.015 | 0.974 ± 0.03 |
| UniProt Q15056 and related entries | 0.92 ± 0.049 | 0.9197 ± 0.0031 | 0.922 ± 0.03 | 0.9303 ± 0.0084 | 0.921 ± 0.013 | 0.896 ± 0.032 |
| ITPR2 (UniProt Q14571) | 1.11 ± 0.11 | 1.07 ± 0.056 | 1.05 ± 0.059 | 1.04 ± 0.045 | 1.15 ± 0.031 | 1.12 ± 0.057 |
| SURF2 (UniProt Q15527) | 0.93 ± 0.1 | 0.972 ± 0.089 | 0.974 ± 0.14 | 1.05 ± 0.087 | 1.03 ± 0.17 | 0.999 ± 0.19 |

Fetched one by one from above (2):

| Target | NP40-soluble protein abundance (concentration: 1mM) | NP40-soluble protein abundance (concentration: 2mM) | NP40-soluble protein abundance (concentration: 4mM) | NP40-soluble protein abundance (concentration: 6mM) | NP40-soluble protein abundance (concentration: 8mM) | NP40-soluble protein abundance (concentration: 10mM) |
| --- | --- | --- | --- | --- | --- | --- |
| UniProt Q16698 and related entries | 0.982 ± 0.022 | 1.03 ± 0.028 | 1.09 ± 0.028 | 1.16 ± 0.039 | 1.12 ± 0.047 | 1.11 ± 0.062 |
| UniProt Q15019 and related entries | 0.98 ± 0.019 | 0.966 ± 0.023 | 0.947 ± 0.033 | 0.987 ± 0.037 | 0.961 ± 0.042 | 0.943 ± 0.032 |
